Measurements published in publication PMC7699649 (Communications Biology, 2020).
Like-named read-outs stand apart in the source and are kept apart here. Non-standard residues stand in square brackets, D forms with d. Residues, ends and D or L forms follow the SMILES beside them.

Legend:
HEK293 = type: cell-based, human; conditions: selectivity index = EC50 divided by the MIC
Protocol: (§1) HeLa and HEK293 cell lines were purchased from ECACC and cultured in Eagle’s Minimum Essential Media containing glutamine, supplemented with 10% FBS and 1X non-essential amino acids. A549 and Calu-3 cell lines were purchased from ATCC. […] Cytotoxicity was measured by incubating starter cultures of cells for 24 h in a 96 well plate, gently removing the supernatant and replacing it with dilutions of peptides and controls, incubating for a further 24 h and then staining of the cells with the second-generation tetrazolium dye, XTT.

A549 = type: cell-based; conditions: selectivity index = EC50 divided by the MIC
Protocol: as §1

[1] = MIC in RPMI (value in parentheses)

Compound	SI HEK293 /EMRSA-15 (HEK293; MIC in Mueller Hinton broth)	SI HEK293 /EMRSA-15 (HEK293; [1])	SI A549/EMRSA-15 (A549; MIC in Mueller Hinton broth)	SI A549/EMRSA-15 (A549; [1])
CC(C)C[C@@H](NC(=O)[C@@H](Cc1ccc(O)cc1)NC(=O)[C@@H](Cc1c[nH]cn1)NC(=O)[C@H](NC(=O)[C@@H](CC(C)C)NC(=O)[C@@H](C)NC(=O)[C@@H](C)NC(=O)[C@@H](CCCCN)NC(=O)CNC(=O)[C@H](NC(=O)[C@@H](Cc1c[nH]cn1)NC(=O)[C@@H](CCCCN)NC(=O)CNC(=O)[C@H](NC(=O)[C@@H](Cc1c[nH]cn1)NC(=O)[C@@H](C)NC(=O)[C@@H](C)NC(=O)[C@@H](CCCCN)NC(=O)[C@@H](CCCCN)NC(=O)[C@@H](Cc1ccccc1)NC(=O)[C@@H](Cc1ccccc1)NC(=O)[C@@H](CO)NC(=O)CNC(=O)[C@@H](Cc1c[nH]c2ccccc12)NC(=O)CN)C(C)C)C(C)C)[C@H](C)O)C(N)=O [D-pleurocidin] (H-G[dW]G[dS][dF][dF][dK][dK][dA][dA][dH][dV]G[dK][dH][dV]G[dK][dA][dA][dL][dT][dH][dY][dL]-NH2; N-terminus assumed)	3.8	61.4	5.0	79.3
CC(C)C[C@@H](NC(=O)[C@@H](Cc1ccc(O)cc1)NC(=O)[C@@H](Cc1c[nH]cn1)NC(=O)[C@H](NC(=O)[C@@H](CC(C)C)NC(=O)[C@@H](C)NC(=O)[C@@H](C)NC(=O)[C@@H](CCCCN)NC(=O)CNC(=O)[C@@H](C)NC(=O)[C@@H](Cc1c[nH]cn1)NC(=O)[C@@H](CCCCN)NC(=O)CNC(=O)[C@@H](C)NC(=O)[C@@H](Cc1c[nH]cn1)NC(=O)[C@@H](C)NC(=O)[C@@H](C)NC(=O)[C@@H](CCCCN)NC(=O)[C@@H](CCCCN)NC(=O)[C@@H](Cc1ccccc1)NC(=O)[C@@H](Cc1ccccc1)NC(=O)[C@@H](CO)NC(=O)CNC(=O)[C@@H](Cc1c[nH]c2ccccc12)NC(=O)CN)[C@H](C)O)C(N)=O [D-pleurocidin-VA] (H-G[dW]G[dS][dF][dF][dK][dK][dA][dA][dH][dA]G[dK][dH][dA]G[dK][dA][dA][dL][dT][dH][dY][dL]-NH2; N-terminus assumed)	6.8	27.2	> 7.8	> 31.2
CC(C)C[C@@H](NC(=O)[C@@H](Cc1ccc(O)cc1)NC(=O)[C@@H](Cc1c[nH]cn1)NC(=O)[C@H](NC(=O)[C@@H](CC(C)C)NC(=O)[C@@H](C)NC(=O)[C@@H](C)NC(=O)[C@@H](CCCNC(=N)N)NC(=O)CNC(=O)[C@H](NC(=O)[C@@H](Cc1c[nH]cn1)NC(=O)[C@@H](CCCNC(=N)N)NC(=O)CNC(=O)[C@H](NC(=O)[C@@H](Cc1c[nH]cn1)NC(=O)[C@@H](C)NC(=O)[C@@H](C)NC(=O)[C@@H](CCCNC(=N)N)NC(=O)[C@@H](CCCNC(=N)N)NC(=O)[C@@H](Cc1ccccc1)NC(=O)[C@@H](Cc1ccccc1)NC(=O)[C@@H](CO)NC(=O)CNC(=O)[C@@H](Cc1c[nH]c2ccccc12)NC(=O)CN)C(C)C)C(C)C)[C@H](C)O)C(N)=O [D-pleurocidin-KR] (H-G[dW]G[dS][dF][dF][dR][dR][dA][dA][dH][dV]G[dR][dH][dV]G[dR][dA][dA][dL][dT][dH][dY][dL]-NH2; N-terminus assumed)	18.2	72.8	28.3	113.0
